Earlier results in US6613768B1, “Treatment of female arousal disorder” (Lilly ICOS LLC, priority 1999, dated 2003).
Counter-ions that a name gives are not always drawn. At least one compound was matched to its structure with a doubt left.

How the values were obtained:
[1] = test system: antidepressant medication-induced sexual dysfunction in four patients (two men, two woman); details: four patients (two men, two women); not placebo controlled
[2] = test system: antidepressant-induced sexual dysfunction in 14 depressed patients (9 men and 5 women); details: 14 depressed patients (9 men, 5 women), not placebo controlled
[3] = test system: postmenopausal women with sexual dysfunction
[4] = thirty-three postmenopausal women

CCCc1nn(C)c2c(=O)[nH]c(-c3cc(S(=O)(=O)N4CCN(C)CC4)ccc3OCC)nc12 [sildenafil, Sildenafil citrate]
patient response [1]: all four patients responded positively
improvement in all domains of sexual functioning [2]: statistically significant improvement
rate of patients reporting improvement ([2]; response by gender not given): 69%
overall sexual function ([3]; postmenopausal women, authors' conclusion): did-not significantly improve
improvement in clitoral sensation, percent [3, 4]: 31.3%
improvement in lubrication, percent [3, 4]: 23.2%
patients reporting significant improvement in therapeutic response [3, 4]: Six
